Data taken from patent US20190359722A1 (TOYO UNIVERSITY, published 2019).
Results are given in words; binding and its absence hold for the method and conditions named. Some entries that bind do so weakly or less than the wild type.

Protein sequences, listed by entry. Tags and fused reporters are not part of them. Lines headed by an entry give the natural chain unless they say otherwise; changes in a name come on top.
UniProt P29317: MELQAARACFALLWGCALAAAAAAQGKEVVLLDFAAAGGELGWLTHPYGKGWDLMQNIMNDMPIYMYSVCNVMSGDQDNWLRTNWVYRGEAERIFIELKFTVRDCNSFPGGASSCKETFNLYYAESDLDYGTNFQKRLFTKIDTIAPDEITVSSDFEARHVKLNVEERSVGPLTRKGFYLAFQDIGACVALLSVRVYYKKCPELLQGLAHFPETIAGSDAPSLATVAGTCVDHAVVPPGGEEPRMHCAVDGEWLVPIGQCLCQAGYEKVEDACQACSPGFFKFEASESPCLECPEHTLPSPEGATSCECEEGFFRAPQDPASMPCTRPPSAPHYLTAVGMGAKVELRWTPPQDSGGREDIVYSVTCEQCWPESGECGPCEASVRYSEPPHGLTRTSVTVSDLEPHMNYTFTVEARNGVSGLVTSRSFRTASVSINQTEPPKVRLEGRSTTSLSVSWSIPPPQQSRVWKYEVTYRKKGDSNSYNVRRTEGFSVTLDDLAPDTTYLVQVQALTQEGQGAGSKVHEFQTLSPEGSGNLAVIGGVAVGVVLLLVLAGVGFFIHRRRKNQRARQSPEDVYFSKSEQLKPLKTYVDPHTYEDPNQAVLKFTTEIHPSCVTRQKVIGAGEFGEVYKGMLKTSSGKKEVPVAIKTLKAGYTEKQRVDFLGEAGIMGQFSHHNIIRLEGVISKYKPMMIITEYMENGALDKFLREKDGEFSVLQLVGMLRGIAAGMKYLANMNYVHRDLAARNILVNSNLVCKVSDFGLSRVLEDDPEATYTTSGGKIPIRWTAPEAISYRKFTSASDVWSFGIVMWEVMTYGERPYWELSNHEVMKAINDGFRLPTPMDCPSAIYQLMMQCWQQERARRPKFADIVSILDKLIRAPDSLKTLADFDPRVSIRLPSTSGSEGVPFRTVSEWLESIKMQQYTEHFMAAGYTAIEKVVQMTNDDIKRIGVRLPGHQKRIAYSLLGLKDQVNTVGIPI

Legend:
[1] = biological target: human recombinant EphA2-(x6 His) purchased from R & D (human) (UniProt P29317); test: sandwich ELISA, capture 57-1, detection biotin-labeled 230-1
[2] = biological target: human recombinant EphA2-(x6 His) purchased from R & D (human) (UniProt P29317); test: optimized sandwich ELISA, 57-1 and 230-1 in both orientations
[3] = biological target: human recombinant EphA2-(x6 His) purchased from R & D (human) (UniProt P29317); test: sandwich ELISA, capture 230-1, detection biotin-labeled 57-1, specificity test
[4] = biological target: human recombinant EphA2-(x6 His) purchased from R & D (human) (UniProt P29317); test: sandwich ELISA with 57-1 and 230-1 as capture and biotin-labeled detection antibodies
[5] = biological target: human recombinant EphA2-(x6 His) purchased from R & D (human) (UniProt P29317); test: sandwich ELISA, monoclonal as capture, biotin-labeled anti-EPHA2 polyclonal antibody (R & D BAF3035) as detection

Measured: binding

B1: mouse anti-EPHA2 monoclonal antibody 230-1 (antibody, V domains shown)
VH: EVQLVESGGGLVKPGGSLKLSCEASGFTFSDYYMYWVRQTPEKRLEWVATISDDGSFTHYLDSVKGRFTISRDNAQNNLYLQMSSLKSDDTAMYYCARDGYRYDRPFAYWGQGTLVTVSA
VL: DIVMTQSHKFMSTSVGDRVRITCKASQDVNTAVAWYQQKPGQSPKLLIYWASTRHTGVPDRFTGSGSGTDYSLTISSVQAEDLALYYCQQHYSTPYTFGGGTKLEIKR
notes: The variable regions were found by 5'-RACE; Used unlabeled as capture antibody and biotin-labeled as detection antibody; also called biotin-labeled antibody 230-1
binds: all assays above

B2: mouse anti-EPHA2 monoclonal antibody 57-1 (antibody, V domains shown)
VH: QIQLVQSGPELKKPGETVKISCKGSGYTFTNYGMNWVKQAPGKGLKWMAWINTDTGEPIFVEEFKGRFAFSLETSASTAYLQINNLTNEDTATYFCARSMGGFANWGQGTLVTVSA
VL: DIVMTQSPATLSVTPGDRVSLSCRASQNISDYLHWYQQKSHESPRLLIKYASQSISGIPSRFSGSGSGSDFTLTINSVEPEDVAMYYCQNGHTFPTFGAGTKLELKR
notes: The variable regions were found by 5'-RACE; Used unlabeled as capture antibody and biotin-labeled as detection antibody; also called biotin-labeled antibody 57-1
binds: all assays above
